Results as given in article doi:10.1101/2022.08.24.504515.

Sequences of proteins named here, by UniProt entry; tags and fusion partners are left off.
UniProt Q9UQB8: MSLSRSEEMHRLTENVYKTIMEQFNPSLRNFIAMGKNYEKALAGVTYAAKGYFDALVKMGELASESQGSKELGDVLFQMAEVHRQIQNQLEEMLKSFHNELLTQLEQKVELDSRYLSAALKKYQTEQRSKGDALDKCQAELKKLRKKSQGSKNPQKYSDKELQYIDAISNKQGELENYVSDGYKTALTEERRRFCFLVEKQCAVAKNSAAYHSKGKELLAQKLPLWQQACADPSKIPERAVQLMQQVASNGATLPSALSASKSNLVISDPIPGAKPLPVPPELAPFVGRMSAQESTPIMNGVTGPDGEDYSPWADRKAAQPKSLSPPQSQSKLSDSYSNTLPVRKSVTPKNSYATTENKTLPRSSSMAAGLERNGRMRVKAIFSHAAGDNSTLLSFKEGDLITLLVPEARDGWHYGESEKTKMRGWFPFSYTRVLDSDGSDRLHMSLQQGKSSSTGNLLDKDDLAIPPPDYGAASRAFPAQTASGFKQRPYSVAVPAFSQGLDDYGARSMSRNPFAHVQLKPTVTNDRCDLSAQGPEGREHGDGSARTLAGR

B1: Drebrin (protein, UniProt Q9QXS6 1-706)
chain: MAGVSFSGHRLELLAAYEEVIREESAADWALYTYEDGSDDLKLAASGEGGLQELSGHFENQKVMYGFCSVKDSQAALPKYVLINWVGEDVPDARKCACASHVAKVAEFFQGVDVIVNASSVEDIDAGAIGQRLSNGLARLSSPVLHRLRLREDENAEPVGTTYQKTDAAVEMKRINREQFWEQAKKEEELRKEEERKKALDARLRFEQERMEQERQEQEERERRYREREQQIEEHRRKQQSLEAEEAKRRLKEQSIFGDQRDEEEESQMKKSESEVEEAAAIIAQRPDNPREFFRQQERVASASGGSCDAPAPAPFNHRPGRPYCPFIKASDSGPSSSSSSSSSPPRTPFPYITCHRTPNLSSSLPCSHLDSHRRMAPTPIPTRSPSDSSTASTPIAEQIERALDEVTSSQPPPPPPPPPPTQEAQETTPSLDEELSKEAKVTAAPEVWAGCAAEPPQAQEPPLLQSSPLEDSMCTESPEQAALAAPAEPAASVTSVADVHAADTIETTTATTDTTIANNVTPAAASLIDLWPGNGEEASTLQAEPRVPTPPSGAEASLAEVPLLNEAAQEPLPPVGEGCANLLNFDELPEPPATFCDPEEEVGETLAASQVLTMPSALEEVDQVLEQELEPEPHLLTNGETTQKEGTQASEGYFSQSQEEEFAQSEEPCAKVPPPVFYNKPPEIDITCWDADPVPEEEEGFEGGD
B2: tropomodulin 3 (protein, UniProt Q9JHJ0 1-352)
chain: MALPFRKDLGDYKDLDEDELLGKLSESELKQLETVLDDLDPENALLPAGFRQKNQTSKSATGPFDRERLLSYLEKQALEHKDRDDYVPYTGEKKGKIFIPKQKPAQTLTEETISLDPELEEALTSASDTELCDLAAILGMHNLIADTPFCDVLGSSNGVNQERFPNVVKGEKILPVFDEPPNPTNVEESLKRIRENDARLVEVNLNNIKNIPIPTLKDFAKTLEANTHVKHFSLAATRSNDPVAVAFADMLKVNKTLKSLNMESNFITGAGVLALIDALRDNETLMELKIDNQRQQLGTSVELEMAKMLEENTNILKFGYQFTQQGPRTRAANAITKNNDLVRKRRIEGDHQ
B3: delphilin (protein, UniProt Q0QWG9 1-1203)
chain: MPATNQGWPEDFGFQLGGSGPCFVIEVAEGSSAHAGGLRPGDQILEVEGLAVGGLSRERIVRLARRCPRVPPSLGVLPGPEGGPTALTAAWLTRRFGRSLPLSRELLRLAGGPRPDAVHRERRRKAQEFSCQVDDILGDRLTAKEQVFTALKQFAAEQRVDELVWTLTLVLPSEAQGPVLDNLRIFIPKKHRARFDEVVSQGLLGKLCRARRAQGAQRLRRSRSEERPERLLVSTRASAAPRRPDEPPPRKATSLLGGRTGPGGPRRTVRVYKGNKSFGFTLRGHGPVWIESVLPGSPAENASLKSGDRILFLNGLDMRNCSHDKVVSMLQGSGAMPTLVVEEGPVPFASDSDSLDSPTRASALTSLQWVADILPSSIRVQGRTFSQQLDHLLTPPERYGVCRALERFFQHRNIDTLIVDVYPVLDTPAKQVLWQFLYQLLTYEEQELCQEKIACFLGYTAMTEPESSLDLEPESTPEPTPEPQPRSSLRASSMCRRSLRSQGLETSLSCGPGDCPEMPLPLIPGERQAGDGTSLPETPNPKMMSAVYAELESRLNSSFKGKIGTMSKSRASPPVPSLVGTSGPRTLSGVSWPSDRLLPSPCYDPLCSGGLASPSSSESHPYASLDSSRAPSPQPGLGSIHADSPPSPDPIRPPSRRKLFAFSRPVRSRDTDRFLDALSEQLGPRLSIVDDFLTPENDYEEMSFHDDQGSFVTNERSSASECVSSSEEGSSLTYSSISDHIPPPPLSPPPPPPLPFHDPKPSSRTSDGPRGPPQSLTKPLTQINHPVPPPPPPPLPPPVPCAPPMLSRGVGHRRSETSHMSVKRLRWEQVENSEGTIWGQLGEDSDYDKLSDMVKYLDLELHFGTQKPPKPVPGPEPFRKKEVVEILSHKKAYNTSILLAHLKLTPGELRQVLMSMEPRRLEPAHLAQLLLFAPDADEEQRYQAFREAPGRLSEPDQFVLQMLSVPEYKTRLRSLHFQATLQEKTEEIRGSLECLRQASLELKNSRKLAKILEFVLAMGNYLNDGQPKTNKTTGFKINFLTELNSTKTVDGKSTFLHILAKSLSQHFPELLGFAQDLPTVPLAAKVNQRALTGDLADLHDTVSEIQVACQSMAPSSEDRFAVVMASFLETAQPALRALDGLQREAMEELGKALAFFGEDSKATTSEAFFGIFSEFMSKFERALSDLQAGDGPRSSGMVSPLAW

Target: IRSp53-EGFP (UniProt Q9UQB8)
Assay: affinity purification with mass spectrometry

binding | Binder
binds | B1
binds | B2
binds | B3

No constants are given. Whether binding was seen depends on the method and setting. Binding seen in cells or lysates may run through a third protein. These calls come from enrichment with a bait or labelling near it, and not all partners need be listed.
